Data reported in patent US20190316085A1, “Methods Of T-Lymphocyte Expansion” (Cambridge Enterprise Limited, priority 2015, published 2019).

System: CD8^+ T-lymphocytes
Experiment: LC-MS/MS quantification of intracellular 2HG
Type: cell-based, mouse

For `O=C(O)CCC(O)C(=O)O` (stereo not shown) [2HG, 2-hydroxyglutarate], the “intracellular concentration of 2HG” value (activated wild type CD8+ T-lymphocytes, 21% oxygen, printed ±30 μM) was 190 µM and the “mean intracellular concentration of 2HG” value (hypoxia (1% oxygen), printed ±0.25 mM) was 1.71 mM.
`O=C(O)CC[C@H](O)C(=O)O` [S-2HG, S-2-hydroxyglutarate] was tested, and the “share of the total 2HG pool” value (hypoxia) was 90% and the “share of the total 2HG pool” value (normoxic activated CD8+ primary T-lymphocytes) was about 60%.
